According to paper PMC6907756:

Molecular target: T1, FLAG-tagged N-terminal half of Δ5 mA3 (Δ5Nh) (mouse) (UniProt Q99J72)
T1 sequence: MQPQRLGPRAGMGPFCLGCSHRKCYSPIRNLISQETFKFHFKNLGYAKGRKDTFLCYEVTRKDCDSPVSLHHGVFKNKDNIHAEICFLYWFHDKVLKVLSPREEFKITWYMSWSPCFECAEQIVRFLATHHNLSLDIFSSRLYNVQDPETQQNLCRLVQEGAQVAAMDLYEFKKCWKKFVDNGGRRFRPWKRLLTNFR
Assay: co-IP; IVT reaction co-expressing Pr180gag-pol and FLAG-tagged mA3 forms (20 h, 30°C), 1 ul diluted in 1000 ul IP buffer (50 mM Tris pH 7.6, 150 mM NaCl, 1% IGEPAL CA-630, 2 mM EDTA); anti-FLAG mAb agarose, 2 h at 4°C; immunoblot with anti-MuLV protease Ab

Substance: Pr180gag-pol precursor polyprotein of F-MuLV strain 57 (Friend murine leukemia virus strain 57)
- binding: binds

No constants are given. Whether binding was seen depends on the method and setting. In cells and extracts the contact can be indirect. Binding can be weak; no strength is given. Sequences can lack the tags named with a protein.
